The values that follow are results of earlier work, collected in patent US20060240077A1, “Methodologies for improving the quality of meat, health status of animals and impact on environment” (priority 2003, published 2006).

For the series the following is noted: for Odour threshold air, High: highest literature value; for Odour threshold air, Low: lowest literature value.

For the molecule `CSSSC` [Dimethyltrisulfide], the “Odour threshold air, High” value is given as 0.0073 mg/m3 and the “Odour threshold air, Low” value is given as 0.0073 mg/m3.
With `CCCOC(=O)CC` [Propylpropionate], the “Odour threshold air, High” value was 0.26 mg/m3 and the “Odour threshold air, Low” value is recorded as 0.23 mg/m3.
Take `CCC(C)=O` [Treatment 2-Butanon, 2-Butanon]: the “Odour threshold air, High” value is on record as 250 mg/m3 and the “Odour threshold air, Low” value is 0.75 mg/m3.
For the molecule `c1ccc2[nH]ccc2c1` [Indole], the “Odour threshold air, High” value is 0.0006 mg/m3 and the “Odour threshold air, Low” value was 0.0006 mg/m3.
On to `CCCC(C)=O` [Treatment 2-Pentanon, 2-Pentanon], for which the “Odour threshold air, High” value is 48 mg/m3 and the “Odour threshold air, Low” value was 11 mg/m3.
